Reference: PubChem BioAssay AID1259254 (NCATS, 2017)
The deposit covers about 59,000 reagents; this is a random part of them. Of all reagents, about 1,550 (2.6%) are marked active. 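G2 share is only a proxy for re-replication; each gene was hit by three separate siRNAs, and active genes were retested.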 Entries without a mark were called inactive. Reagents against one gene are numbered here. Further read-outs or replicates are left out here. Not given: the amount of reagent.

- Aim: 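Finding genes that stop cells copying their DNA twice in one cycle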 (primary screen)
- Cell system: human HCT116 colorectal cancer cells
- Knock-down reagent: single siRNA against human genes
- Duration: 3 days
- Detection: 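Imaged Hoechst DNA stain sorts each cell into a cycle phase by DNA amount; per plate, G2 fraction set to 0% for non-targeting and 100% for GMNN siRNA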
- Reading the numbers: G2 robust z-score: higher = more G2 cells, more excess DNA replication
- Active means: 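An siRNA counts as active if its G2 robust z-score lies at least 5 MADs above the screen median; here such calls match roughly 38% of GMNN control or more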

The first 2 records as a preview:
gene | siRNA no. | G2 robust z-score
SPRING1 (SREBF pathway regulator in golgi 1) | 1 | 0.597
SPRING1 (SREBF pathway regulator in golgi 1) | 2 | 0.716

The list itself, from the first entry:
gene | siRNA no. | G2 robust z-score
SPRING1 (SREBF pathway regulator in golgi 1) | 1 | 0.597
SPRING1 (SREBF pathway regulator in golgi 1) | 2 | 0.716
SPRING1 (SREBF pathway regulator in golgi 1) | 3 | 0.398
SIRT5 (sirtuin 5) | 1 | -1.31
SIRT5 (sirtuin 5) | 2 | -0.627
SIRT5 (sirtuin 5) | 3 | 4.29
TMEM250 (transmembrane protein 250) | 1 | 1.28
TMEM250 (transmembrane protein 250) | 2 | -0.142
TMEM250 (transmembrane protein 250) | 3 | -1.14
FCRLA (Fc receptor like A) | 1 | -0.575
FCRLA (Fc receptor like A) | 2 | -0.149
FCRLA (Fc receptor like A) | 3 | 1.85
PDE4DIP (phosphodiesterase 4D interacting protein) | 1 | 1.45
PDE4DIP (phosphodiesterase 4D interacting protein) | 2 | 1.85
PDE4DIP (phosphodiesterase 4D interacting protein) | 3 | 0.441
KMT5A (lysine methyltransferase 5A) | 1 | 1.46
KMT5A (lysine methyltransferase 5A) | 2 | 7.94 (active)
KMT5A (lysine methyltransferase 5A) | 3 | 0.941
PAN2 (poly(A) specific ribonuclease subunit PAN2) | 1 | 1.02
PAN2 (poly(A) specific ribonuclease subunit PAN2) | 2 | 0.108
PAN2 (poly(A) specific ribonuclease subunit PAN2) | 3 | -0.584
KRT82 (keratin 82) | 1 | 0.18
KRT82 (keratin 82) | 2 | -0.814
KRT82 (keratin 82) | 3 | -0.447
PSMD13 (proteasome 26S subunit, non-ATPase 13) | 1 | 3.29
PSMD13 (proteasome 26S subunit, non-ATPase 13) | 2 | 1.99
PSMD13 (proteasome 26S subunit, non-ATPase 13) | 3 | 0.443
SLC26A3 | 1 | 0.172
SLC26A3 | 2 | -0.0243
SLC26A3 | 3 | 1.07
